Entries after “also recorded” stand apart in the source; their conditions may differ.
Tested on: 25-37 human α-CGRP fragment
Assay: Alanine scan of C-terminal CGRP fragment (CGRP 25-37) by Biacore, epitope identification
Format: binding
Conditions: Fab fragments of G1, 25° C.
Protocol: Interaction analysis was conducted at 25° C. on a Biacore 3000™ system equipped with streptavidin-coated (SA) sensor chips (Biacore AB, Uppsala, Sweden) using a standard Biacore running buffer (HBS-P). […] Each amino acid between position 27-37 was then mutated individually to alanine and expressed the fold loss in affinity compared to the wild-type fragment. N-biotinylated fragments were captured on individual flow cells at low levels (typically 100 response units) to provide the reaction surfaces, while an unmodified flow cell served as a reference channel. Purified Fab fragments of antibody G1 were generated. Fab fragments were titrated over the chip using 1 μM as the top concentration of a two-fold dilution series. Association and dissociation phases were monitored at 100 μl/min for 1 minute and 5 minutes respectively. Surfaces were regenerated with a mixture of 35% ethanol+25 mM NaOH+0.5M NaCl.

In the case of “G1: humanized IgG2Δa monoclonal anti-CGRP antagonist antibody from expression vectors ATCC PTA-6867 and PTA-6866; variable regions SEQ ID Nos. 1 and 2”, the “binding epitope (alanine scan)” value is reported as “last 5 C-terminal amino acids, i.e. from G33A to F37A; also recorded: binds to the C-terminal region of human α-CGRP”.
